In PubChem BioAssay AID1671190 (National Center for Advancing Translational Sciences (NCATS), 2021):
Values joined by “and” are separate entries in the source; they are usually repeats but may differ in a detail not shown here. Equal values may be shown once. Hit rate of the full screen: of about 580,000 compounds, about 6,100 (1.1%) were called active. The shares of active, inactive and inconclusive entries below differ from those in the screen. The call rests on the fitted dose curve; in most records, active means well fitted inhibition curve with a large enough effect; inconclusive means small, poorly fitted or top-dose-only effect, or another doubt; inactive means no such curve, though single readings can be large or run the other way. Where the call is inconclusive, the potency comes from a doubtful curve fit.
On the % scale 0 is the no-effect control and ±100 the full control effect; potency means the concentration at half of the fitted maximal effect.

Sequences of proteins named here, by UniProt entry; tags and fusion partners are left off. A change or cut given only in a name is not applied to a line headed by its entry.
UniProt P18054: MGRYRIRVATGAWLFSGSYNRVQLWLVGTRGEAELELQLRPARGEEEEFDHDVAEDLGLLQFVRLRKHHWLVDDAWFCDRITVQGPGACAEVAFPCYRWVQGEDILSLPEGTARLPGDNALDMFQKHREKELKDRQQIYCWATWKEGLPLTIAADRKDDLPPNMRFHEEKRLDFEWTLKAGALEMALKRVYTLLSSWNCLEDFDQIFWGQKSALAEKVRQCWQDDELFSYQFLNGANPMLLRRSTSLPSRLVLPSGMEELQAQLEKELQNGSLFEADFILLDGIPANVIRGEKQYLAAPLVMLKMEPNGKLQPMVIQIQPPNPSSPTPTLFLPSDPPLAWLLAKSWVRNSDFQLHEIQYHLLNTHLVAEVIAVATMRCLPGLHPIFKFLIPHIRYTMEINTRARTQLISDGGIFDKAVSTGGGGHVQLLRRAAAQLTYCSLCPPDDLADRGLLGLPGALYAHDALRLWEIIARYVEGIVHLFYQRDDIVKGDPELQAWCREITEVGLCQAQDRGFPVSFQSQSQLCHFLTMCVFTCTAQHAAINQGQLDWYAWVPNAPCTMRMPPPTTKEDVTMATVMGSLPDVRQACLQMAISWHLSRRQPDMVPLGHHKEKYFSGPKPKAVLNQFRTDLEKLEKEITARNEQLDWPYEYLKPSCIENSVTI

What follows are molecules tested against Polyunsaturated fatty acid lipoxygenase ALOX12 (Homo sapiens) (UniProt P18054) (assay: Primary qHTS assay for inhibitors of human arachidonate 12S-lipoxygenase (ALOX12): Round 2). Details: purified 12hLO, xylenol orange hydroperoxide absorbance; activity change, negative = inhibition: at 108 µM (top of the series) unless noted.
Procedure, shortened: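 Hydroperoxide product was detected by ferrous iron/xylenol orange as the 573 to 405 nm absorbance ratio. Arachidonic acid at 40 uM (final) was turned over for 30 min at room temperature by 150 nM human 12hLO, pH 7.0 Hepes buffer, after 15 min compound preincubation.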
`Cc1ccc([C@H]2N[C@]3(CCCN(Cc4ccc(C(F)(F)F)cc4)C3=O)[C@H]3C(=O)N(Cc4ccccc4)C(=O)[C@@H]23)cc1` was tested, and the Potency was inconclusive: 100 µM [inhibitor, single point]. In the case of `CCOC(=O)N1CCC(NC(=O)c2cnn(-c3cccc(F)c3)c2-n2cccc2)CC1`, the Potency was inconclusive: 89.1 µM [inhibitor, partial curve, poor fit]. `O=S(=O)(c1ccc(F)cc1)c1nc(-c2ccccc2)oc1N1CCOCC1` was tested, and the Potency was inconclusive: 35.5 µM [inhibitor, single point]. `CCCCOc1ccc(NC2=NC3(CCCCC3)N=C(N)N2)cc1` was tested, and the Potency was inconclusive: 44.7 µM [inhibitor, partial curve, poor fit]. In the case of `NS(=O)(=O)c1ccc(CCNc2ncnc3c2cnn3-c2cccc(Cl)c2)cc1`, the Potency was inconclusive: 89.1 µM [inhibitor, partial curve, poor fit]. `OC(c1ccccc1)c1nccc2ccccc12` (stereo unspecified) was tested, and the Potency was inconclusive: 25.1 µM [inhibitor, single point]. With `COc1ccc(/C(N)=N/OC(=O)Oc2ccccc2)cc1` the Potency was inconclusive: 56.2 µM [inhibitor, full curve, poor fit]. In the case of `CCOC(=O)c1cnc(-c2ccccc2)nc1Oc1ccc(C)cc1`, the Potency was inconclusive: 56.2 µM [inhibitor, partial curve, poor fit]. With `CC1CCN(S(=O)(=O)c2ccc3c(c2)c(=O)c(C(=O)NC(C)c2ccccc2)cn3C)CC1` (stereo unspecified) the Potency was inconclusive: 56.2 µM [inhibitor, partial curve, poor fit]. For `CC(NS(=O)(=O)c1cccs1)c1ccccn1` (stereo unspecified), the Potency was inconclusive: 1 µM [inhibitor, full curve, poor fit]. With `CCCCCOC(=O)Nc1nnc(CCCCC)s1` the Potency was “inactive”. With `CC(NC(=S)Nc1ccc(OC(F)F)cc1OC(F)F)C(C)(C)C` (stereo unspecified) the Potency was inconclusive: 50.1 µM [inhibitor, partial curve, poor fit]. With `Cc1ccc(-c2nnc(Nc3cccc(O)c3)c3ccccc23)cc1S(=O)(=O)NCC1CCCO1` (stereo unspecified) the Potency was inconclusive: 20 µM [inhibitor, partial curve, poor fit]. In the case of `Cc1ccc(/C=N/NC(=O)c2nnn(-c3nonc3N)c2CSc2ccccc2)cc1`, the Potency was “inactive”. In the case of `Cc1nn(-c2ccc(C(F)(F)F)cc2)c(C)c1[C@@H]1C=C[C@@H](NCc2ccc(N(C)C)cc2)C1`, the Potency was inconclusive: 79.4 µM [inhibitor, partial curve]. For `COc1cccc(CNC(=O)c2ccc3c(=O)n4nc(Nc5ccccc5)sc4nc3c2)c1`, the Potency was inconclusive: 20 µM [inhibitor, partial curve, poor fit]. For `CCOC(=O)c1c(C)n(-c2ccccc2)c2ccc(OC(=O)c3cccc(C)c3)cc12`, the Potency was “inactive”. For `Cc1cccc(C)c1NC(=S)/C(=C(\[O-])c1cccs1)[n+]1ccccc1`, the Potency was “inactive”. For `CC(=O)c1cc(-c2ccc(F)cc2)n(CC(=O)NC2CCC(C)CC2)c1C` (stereo unspecified), the Potency was inconclusive: 100 µM [inhibitor, partial curve, poor fit]. For `COc1cccc(NS(=O)(=O)c2c(C)cc(C)cc2C)c1`, the Potency was inconclusive: 89.1 µM [inhibitor, partial curve, poor fit]. For `Cc1ccc(S(=O)(=O)N/N=C\c2ccc(C)o2)cc1`, the Potency was inconclusive: 56.2 µM [inhibitor, partial curve, poor fit]. For `Cc1oc2cc(OCC(=O)Nc3ccc(O)cc3)ccc2c(=O)c1-c1ccccc1`, the Potency was inconclusive: 126 µM [inhibitor, single point]. With `OCCNCCCOc1cc(Cl)ccc1Cl` the Potency was “inactive”. For `CCn1c(N)c(C(N)=O)sc1=S`, the Potency was inconclusive: 50.1 µM [inhibitor, partial curve, poor fit]. With `Cc1ccc(-n2nnnc2-c2cnn(-c3ccc(F)cc3)c2C(F)(F)F)cc1` the Potency was inconclusive: 50.1 µM [inhibitor, partial curve, poor fit]. For `Cc1cccc(NC(=O)Cn2nc3c4ccccc4n(Cc4ccccc4)cc-3c2=O)c1`, the Potency was inconclusive: 126 µM [inhibitor, single point]. With `CCCC(=O)Nc1nnc(-c2ccc3c(c2)OCO3)s1` the Potency was “inactive”. For `Cc1nn(Cc2ccc(F)cc2)c(C)c1NC(=O)c1cc2ncc(Br)cn2n1`, the Potency was “inactive”. With `CC(=O)N1CCN(c2ccc(S(=O)(=O)N3CCOCC3)cc2[N+](=O)[O-])CC1` the Potency was “inactive”. In the case of `O=C(c1ccccc1)N1CCC2(CC1)CC(N(Cc1ccc(F)cc1)C1CC1)CCO2` (stereo unspecified), the Potency was “inactive”. For `CCc1c(C)nn(CC(=O)NC2CCCN(c3ncccn3)C2)c1C` (stereo unspecified), the Potency was inconclusive: 50.1 µM [inhibitor, partial curve, poor fit]. With `O=C(NCc1cccs1)O[C@H]1CC[C@@]23CCCN2C(=O)CCC[C@H]3[C@H]1Cc1ccccc1` the Potency was inconclusive: 44.7 µM [inhibitor, partial curve, poor fit]. With `CCc1nnc(NC(=O)CN2CCOCC2)s1` the Potency was inconclusive: 0.708 µM [inhibitor, full curve, poor fit]. In the case of `O=C1OCC2(CCN(Cc3ccccc3O)C2)N1Cc1ccccc1` (stereo unspecified), the Potency was inconclusive: 100 µM [inhibitor, partial curve]. With `CCN(CC)CC(=O)NN(Cc1ccccc1)c1ccccc1` the Potency was inconclusive: 0.355 µM [inhibitor, full curve, poor fit]. With `Cc1ccc(-n2c(SCC(=O)c3c(N)n(C4CC4)c(=O)[nH]c3=O)nnc2N2CCOCC2)cc1` the Potency was “inactive”. In the case of `CCOC(=O)C1=C(C)OC(N)=C(C#N)C1c1cccc2ccccc12` (stereo unspecified), the Potency was inconclusive: 39.8 µM [inhibitor, partial curve, poor fit]. With `Cc1ccccc1C(=O)OCc1cc(=O)n2nc(C(C)C)sc2n1` the Potency was inconclusive: 112 µM [inhibitor, partial curve, poor fit]. In the case of `Cc1cccc2sc(N(CCCN(C)C)C(=O)CCS(=O)(=O)c3ccccc3)nc12`, the Potency was inconclusive: 44.7 µM [inhibitor, partial curve, poor fit]. With `Fc1ccc2nc(-c3ccc(CN4CCC5(CC4)CNc4ccccc45)cc3)c(-c3ccccc3)nc2c1` the Potency was inconclusive: 44.7 µM [inhibitor, partial curve, poor fit]. For `Nc1ccc(N=Nc2ccccc2)c(N)n1`, the Potency was inconclusive: 44.7 µM [inhibitor, partial curve, poor fit] and inconclusive: 70.8 µM [inhibitor, partial curve, poor fit]. `CC(=O)c1ccc(SCC(=O)N(C2CCCC2)C2CCCC2)c(F)c1` was tested, and the Potency was “inactive”. For `O=C(O)c1cc(O)c(O)c(O)c1`, the Potency was inconclusive: 12.8 µM [inhibitor, partial curve]. In the case of `Cc1nc(N2CCN(Cc3ccc4c(c3)OCO4)CC2)[nH]c(=O)c1C`, the Potency was “inactive”. In the case of `Cc1noc(-c2ccc(OC3CN(C(=O)Cc4cccs4)C3)cc2)n1`, the Potency was active: 7.08 µM. For `Cc1ccc(N2CC(C(=O)Nc3nnc(SCC(=O)NCC4CCCO4)s3)CC2=O)cc1C` (stereo unspecified), the Potency was “inactive”. `CCNc1nc(Cl)nc(NC2CCCCC2)n1` was tested, and the Potency was inconclusive: 50.1 µM [inhibitor, partial curve, poor fit]. For `CN(Cc1ccccc1)S(=O)(=O)c1ccc2[nH]c3c(c2c1)CCCCC3`, the Potency was inconclusive: 20 µM [inhibitor, partial curve]. `CCN1CCN(C(c2ccc(C)cc2)c2c(O)cc(C)n(Cc3ccco3)c2=O)CC1` (stereo unspecified) was tested, and the Potency was inconclusive: 50.1 µM [inhibitor, partial curve, poor fit]. In the case of `O=C(c1cnccn1)N1CCC2(CCCN(c3cccc(-c4ccccc4)c3)C2)CC1`, the Potency was inconclusive: 35.5 µM [inhibitor, single point]. `Cc1cccc(NC2=NC(C)(C)N=C(N)N2)c1C` was tested, and the Potency was “inactive”. With `CN(C)C[C@@H]1CN(C2CCOCC2)C[C@H]1NC(=O)c1cnco1` the Potency was “inactive”. For `COc1ccccc1-c1ccnc(-n2ncc(C(=O)NC(C)(C)CO)c2C2CC2)n1`, the Potency was “inactive”. `CCS(=O)(=O)c1ccc(NC(=O)c2ccccc2Cl)c(O)c1` was tested, and the Potency was inconclusive: 7.94 µM [inhibitor, full curve, poor fit]. In the case of `C=CCOc1ccc(C(=O)/C=C2/C(=O)Nc3ccccc32)cc1`, the Potency was “inactive”. For `Cc1ccc(S(=O)(=O)/N=C(/Sc2ccccc2C(=O)O)c2ccccc2)cc1`, the Potency was “inactive”. With `C=C(C)C1CC=C(C)/C(=N/Nc2ccccc2[N+](=O)[O-])C1` (stereo unspecified) the Potency was “inactive”. `COC(=O)c1cc(Sc2c(Cl)cccc2Cl)ccn1` was tested, and the Potency was active: 39.8 µM. `O=C(O)c1cccc(COc2ccc3c(c2)CCC3)c1` was tested, and the Potency was “inactive”. `CC(=O)NCCC(=O)N1Cc2ccccc2CC2(CCCN2CC2CCCCC2)C1` (stereo unspecified) was tested, and the activity change, negative = inhibition was inactive: 1.56% [at 6.33 µM]. In the case of `Cc1ccc(C)c(OCCC(=O)OCC(=O)Nc2ccc(C)c(S(=O)(=O)N3CCCCC3)c2)c1`, the Potency was inconclusive: 100 µM [inhibitor, single point]. With `COc1ccc(/C=C2/C(=O)N(c3c(F)c(F)c(F)c(F)c3F)N=C2C)cc1` the Potency was inconclusive: 35.5 µM [inhibitor, partial curve]. With `CCOC(=O)C1=C(CSc2nc3c(cc2C#N)CN(C)CC3)OC(N)=C(C#N)C1c1ccc(F)cc1` (stereo unspecified) the Potency was inconclusive: 28.2 µM [inhibitor, partial curve, poor fit]. For `O=C(NCc1ccccc1)c1ccc2c(=O)[nH]c3c(C(=O)NCC4CCCO4)sc(=S)n3c2c1` (stereo unspecified), the Potency was inconclusive: 44.7 µM [inhibitor, partial curve, poor fit]. For `COc1cc(OC)c2c(C)c(CC(=O)Nc3cccc(Cl)c3)c(=O)oc2c1`, the Potency was “inactive”. For `Cc1cccc(NC(=S)NCC2(C)CC(NC(=S)Nc3cccc(C)c3)CC(C)(C)C2)c1` (stereo unspecified), the Potency was inconclusive: 28.2 µM [inhibitor, partial curve, poor fit].
